Assay results taken from patent publication US10071108B2, “Methods and pharmaceutical compositions for the treatment of hepatitis b virus infection” (INSERM (INSTITUT NATIONAL DE LA SANTÉ ET DE LA RECHERCHE …, priority 2013, dated 2018).
Entries after “also recorded” stand apart in the source; their conditions may differ. At least one structure is not confirmed: it was looked up by name or label, or the drawing left a doubt. Some of these results come from one statement about several compounds together.

How the values were obtained:
Assay type in all cases: cell-based, hepatitis B virus
[1] = tested on: HBV; experiment: Secretion of HBsAg in supernatant of HBV infected HepaRG cells
Description: Differentiated HepaRG cells were infected with HBV (100 geq/cell for 24 hr), then treated 3 successive times (days 4, 7 and 11 post infection) with FXR modulators at indicated concentrations in μM. Cell supernatants were collected 14 days post infection for quantification of HBsAg (Architec Abbott).
(§1) The HepaRG line derived from a human cellularhepato carcinoma can differentiate and regain many phenotypic traits of hepatocytes after 4 weeks of culture under defined conditions (Hantz O. et al., 2009, J Gen Virol, 90:127-135). After differentiation, these cells are susceptible to infection at high MOI of HBV virions produced by HepG2.2.15 line. Under these conditions viral production can be observed in the second week post infection. This system allows the study of most steps of the viral replication cycle, including penetration into the cell, translocation of the viral genome into the nucleus, the repair and synthesis of the cccDNA, transcription of pregenomic and viral mRNAs as well as later stages of the replication cycle with the synthesis of viral proteins, the assembly and secretion of infectious virions and the secretion of the viral proteins HBs and HBe.
(§2) The HepaRG system thus allows the monitoring of the secretion of HBsAg and HBeAg and virion incorporated DNA into the cell culture supernatant after infection with HBV infectious virion stocks prepared from the HepG2.2.15 cell line. This system also allows the monitoring of the synthesis of pregenomic and viral mRNAs as well as cytoplasmic replication intermediates and cccDNA. The effects of molecules on cell physiology and cell differentiated functions were explored, including the quantification of hepatic markers such as albumin and apolipoprotein B. The effects of the compounds on the cellular bile acid pathway were monitored by analysis and quantification of the FXR mRNA as well as the SHP and apoA1 encoding mRNAs the expression of which is under the control of FXR

[2] = tested on: HBV; experiment: Secretion of HBeAg in supernatant of HBV infected HepaRG cells
Description: (§3) Cell supernatants were collected 14 days post infection for quantification of HBsAg, HBeAg (Architec Abbott) or HBV DNA by quantitative PCR using rcDNA primers (n=3±SEM). FIG. 2A—Both FXR agonists, GW4064 and 6ECDCA, inhibit the secretion of HBsAg and HBeAg in the supernatant in a dose-dependent manner whereas UDCA and 052EDL133 have no effect on the antigen secretion. FIG. 2B—Both FXR agonists, GW4064 and 6ECDCA, inhibit the secretion of infectious HBV DNA positive viral particles in the supernatant in a dose-dependent manner. […] FIG. 2C—The FXR agonist PXL007 represses HBsAg, HBeAg and HBV DNA in a dose-dependent manner.
The HepaRG line derived from a human cellularhepato carcinoma can differentiate and regain many phenotypic traits of hepatocytes after 4 weeks of culture under defined conditions (Hantz O. et al., 2009, J Gen Virol, 90:127-135). After differentiation, these cells are susceptible to infection at high MOI of HBV virions produced by HepG2.2.15 line. Under these conditions viral production can be observed in the second week post infection. […]
as §2, with “This system also allows the monitoring of the synthesis of pregenomic and viral mRNAs as well as cytoplasmic replication intermediates and cccDNA.” left out

[3] = tested on: HBV; experiment: Secretion of HBV DNA in supernatant of HBV infected HepaRG cells (quantitative PCR); details: for inhibition of secretion of viral DNA in supernatant: maximum over tested doses
Description: as §3
Differentiated HepaRG cells were infected and treated as described in FIG. 1 legend. Cell supernatants were collected 14 days post infection. (FIG. 8A) Quantification of HBsAg and HBeAg secretion. (FIG. 8B) Quantification of secreted infectious particles by DNA extraction and quantification by qPCR.
as §1, §2

[4] = tested on: HBV; experiment: Expression of HBV core protein (HBc) in infected HepaRG cells, immunofluorescence; details: fixed day 14 post infection, anti-HBc immunofluorescence
Method: Differentiated HepaRG cells grown on coverslips were infected and treated as described in FIG. 1 legend (n=3±SEM). Cells were fixed on day 14 post infection and immunocytochemistry using anti-HBc antibody was carried out.

[5] = CsA during infection, then FXR agonist
[6] = HBV infected HepaRG, treated days 4, 7 and 11 post infection, supernatant day 14

| SMILES | HBsAg secretion, FXR agonist treatment of cells infected in presence of cyclosporin A [1, 5] | effect on HBsAg secretion in supernatant [1, 6] | HBeAg secretion, FXR agonist treatment of cells infected in presence of cyclosporin A [2, 5] | effect on HBeAg secretion in supernatant [2, 6] | inhibition of secretion of viral DNA in supernatant [3] | effect on secretion of HBV DNA (virions) in supernatant ([3]; supernatant day 14, quantitative PCR) | expression of HBc in infected cells [4] | effect on HBsAg secretion ([1]; at 10 μM, HBV infected HepaRG) | effect on HBeAg secretion ([2]; at 10 μM, HBV infected HepaRG) | effect on HBV DNA positive virions secretion ([3]; at 10 μM) |
| --- | --- | --- | --- | --- | --- | --- | --- | --- | --- | --- |
| CC[C@H]1[C@@H](O)[C@@H]2[C@H](CC[C@]3(C)[C@@H]([C@H](C)CCC(=O)O)CC[C@@H]23)[C@@]2(C)CC[C@@H](O)C[C@@H]12 [6ECDCA, 3α,7α-dihydroxy 7α-dihydroxy-6α-ethyl-5β-cholan-24-oic acid] | further reduced | inhibit; also recorded: dose dependent and strong inhibitory effect | further reduced | inhibit; also recorded: dose dependent and strong inhibitory effect | up to 80% | inhibit | drastically reduce; also recorded: strongly inhibited | – | – | – |
| CC(C)c1onc(-c2c(Cl)cccc2Cl)c1COc1ccc(/C=C/c2cccc(C(=O)O)c2)c(Cl)c1 [GW4064] | – | – | – | – | up to 80% | – | – | – | – | – |
| Nc1ccn([C@@H]2CS[C@H](CO)O2)c(=O)n1 [lamivudine] | – | – | – | – | – | – | – | very limited effect; also recorded: only weakly repressed | very limited effect; also recorded: only weakly repressed | very efficiently decreased |
